From PMC9613687
Results are given in words; binding and its absence hold for the method and conditions named. In cells and extracts the contact can be indirect. Some binding calls cover weakened binding; strength is not graded here. Where a sequence is shown, tags or fusion partners need not be part of it.

Protein sequences, listed by entry. Tags and fused reporters are not part of them. Lines headed by an entry give the natural chain unless they say otherwise; changes in a name come on top.
UniProt Q8N3C0: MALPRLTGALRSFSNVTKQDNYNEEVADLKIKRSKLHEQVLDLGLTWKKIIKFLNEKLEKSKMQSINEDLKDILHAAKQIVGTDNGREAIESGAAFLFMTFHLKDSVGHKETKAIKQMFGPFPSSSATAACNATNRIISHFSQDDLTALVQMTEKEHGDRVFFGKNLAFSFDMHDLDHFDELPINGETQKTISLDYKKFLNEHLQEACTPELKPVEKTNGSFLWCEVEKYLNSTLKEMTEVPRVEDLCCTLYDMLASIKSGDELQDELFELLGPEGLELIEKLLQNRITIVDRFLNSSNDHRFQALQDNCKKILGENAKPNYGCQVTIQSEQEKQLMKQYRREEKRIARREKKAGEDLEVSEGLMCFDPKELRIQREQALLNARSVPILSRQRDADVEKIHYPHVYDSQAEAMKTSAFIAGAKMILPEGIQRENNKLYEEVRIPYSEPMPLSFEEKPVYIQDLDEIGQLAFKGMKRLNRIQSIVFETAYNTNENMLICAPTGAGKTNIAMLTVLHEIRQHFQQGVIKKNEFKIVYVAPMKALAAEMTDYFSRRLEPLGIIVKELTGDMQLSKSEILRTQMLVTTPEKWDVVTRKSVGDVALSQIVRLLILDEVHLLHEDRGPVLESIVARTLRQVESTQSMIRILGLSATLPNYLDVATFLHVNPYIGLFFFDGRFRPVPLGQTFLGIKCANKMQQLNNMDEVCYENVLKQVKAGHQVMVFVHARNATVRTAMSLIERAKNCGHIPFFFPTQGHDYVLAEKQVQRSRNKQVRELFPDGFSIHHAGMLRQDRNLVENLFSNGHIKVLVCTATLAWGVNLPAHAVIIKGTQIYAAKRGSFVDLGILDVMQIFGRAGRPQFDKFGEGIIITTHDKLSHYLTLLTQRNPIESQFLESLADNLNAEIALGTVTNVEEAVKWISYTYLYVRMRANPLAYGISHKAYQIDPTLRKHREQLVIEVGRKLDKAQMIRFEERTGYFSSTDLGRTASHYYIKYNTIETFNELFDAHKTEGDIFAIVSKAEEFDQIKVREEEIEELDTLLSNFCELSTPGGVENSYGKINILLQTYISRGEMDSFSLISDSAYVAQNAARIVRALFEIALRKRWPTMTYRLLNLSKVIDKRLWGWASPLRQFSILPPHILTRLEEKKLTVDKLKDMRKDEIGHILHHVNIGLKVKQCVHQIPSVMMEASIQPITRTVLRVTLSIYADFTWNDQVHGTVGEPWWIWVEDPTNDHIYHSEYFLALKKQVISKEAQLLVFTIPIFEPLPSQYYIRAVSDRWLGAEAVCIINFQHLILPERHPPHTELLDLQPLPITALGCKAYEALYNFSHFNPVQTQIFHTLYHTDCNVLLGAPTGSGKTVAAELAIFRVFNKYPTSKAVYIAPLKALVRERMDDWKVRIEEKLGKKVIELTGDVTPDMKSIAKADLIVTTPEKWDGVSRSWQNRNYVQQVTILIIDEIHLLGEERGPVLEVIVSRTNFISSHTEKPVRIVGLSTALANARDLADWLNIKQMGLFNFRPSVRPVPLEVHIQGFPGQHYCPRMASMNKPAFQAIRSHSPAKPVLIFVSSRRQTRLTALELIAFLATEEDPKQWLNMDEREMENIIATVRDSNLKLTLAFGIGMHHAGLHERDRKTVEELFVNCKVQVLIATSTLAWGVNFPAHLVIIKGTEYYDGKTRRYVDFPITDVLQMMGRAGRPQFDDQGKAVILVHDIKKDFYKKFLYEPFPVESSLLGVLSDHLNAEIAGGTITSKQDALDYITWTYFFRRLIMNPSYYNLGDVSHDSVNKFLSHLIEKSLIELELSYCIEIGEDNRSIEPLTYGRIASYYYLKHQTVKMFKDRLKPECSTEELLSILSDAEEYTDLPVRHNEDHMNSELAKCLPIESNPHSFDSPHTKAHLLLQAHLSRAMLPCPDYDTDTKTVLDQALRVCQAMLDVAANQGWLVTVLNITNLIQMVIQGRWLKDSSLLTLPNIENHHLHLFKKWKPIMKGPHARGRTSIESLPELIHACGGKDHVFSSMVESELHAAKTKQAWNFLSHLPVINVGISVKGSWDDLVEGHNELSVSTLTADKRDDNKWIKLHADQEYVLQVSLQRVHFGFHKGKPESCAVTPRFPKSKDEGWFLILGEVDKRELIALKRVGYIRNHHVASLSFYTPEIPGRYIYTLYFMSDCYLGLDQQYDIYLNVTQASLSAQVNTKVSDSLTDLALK

Legend:
[1] = target: 3FLAG tagged ASCC3 (human) (UniProt Q8N3C0); test: co-IP; Lenti-X 293T lysate, 3FLAG-ASCC3 captured on anti-DYKDDDDK tag antibody beads, washed with 300 mM NaCl, 1% NP-40 buffer, eluted with FLAG peptide
[2] = target: ASCC3-K505R ATPase activity deficient variant (human) (UniProt Q8N3C0); test: as above

binding [1] | binding [2] | Binder
binds | binds | HA-TRIP4 (protein, UniProt Q15650 1-581) MAVAGAVSGEPLVHWCTQQLRKTFGLDVSEEIIQYVLSIESAEEIREYVTDLLQGNEGKKGQFIEELITKWQKNDQELISDPLQQCFKKDEILDGQKSGDHLKRGRKKGRNRQEVPAFTEPDTTAEVKTPFDLAKAQENSNSVKKKTKFVNLYTREGQDRLAVLLPGRHPCDCLGQKHKLINNCLICGRIVCEQEGSGPCLFCGTLVCTHEEQDILQRDSNKSQKLLKKLMSGVENSGKVDISTKDLLPHQELRIKSGLEKAIKHKDKLLEFDRTSIRRTQVIDDESDYFASDSNQWLSKLERETLQKREEELRELRHASRLSKKVTIDFAGRKILEEENSLAEYHSRLDETIQAIANGTLNQPLTKLDRSSEEPLGVLVNPNMYQSPPQWVDHTGAASQKKAFRSSGFGLEFNSFQHQLRIQDQEFQEGFDGGWCLSVHQPWASLLVRGIKRVEGRSWYTPHRGRLWIAATAKKPSPQEVSELQATYRLLRGKDVEFPNDYPSGCLLGCVDLIDCLSQKQFKEQFPDISQESDSPFVFICKNPQEMVVKFPIKGNPKIWKLDSKIHQGAKKGLMKQNKAV
binds | binds | HA-ASCC2 (protein, UniProt Q9H1I8 1-757) MPALPLDQLQITHKDPKTGKLRTSPALHPEQKADRYFVLYKPPPKDNIPALVEEYLERATFVANDLDWLLALPHDKFWCQVIFDETLQKCLDSYLRYVPRKFDEGVASAPEVVDMQKRLHRSVFLTFLRMSTHKESKDHFISPSAFGEILYNNFLFDIPKILDLCVLFGKGNSPLLQKMIGNIFTQQPSYYSDLDETLPTILQVFSNILQHCGLQGDGANTTPQKLEERGRLTPSDMPLLELKDIVLYLCDTCTTLWAFLDIFPLACQTFQKHDFCYRLASFYEAAIPEMESAIKKRRLEDSKLLGDLWQRLSHSRKKLMEIFHIILNQICLLPILESSCDNIQGFIEEFLQIFSSLLQEKRFLRDYDALFPVAEDISLLQQASSVLDETRTAYILQAVESAWEGVDRRKATDAKDPSVIEEPNGEPNGVTVTAEAVSQASSHPENSEEEECMGAAAAVGPAMCGVELDSLISQVKDLLPDLGEGFILACLEYYHYDPEQVINNILEERLAPTLSQLDRNLDREMKPDPTPLLTSRHNVFQNDEFDVFSRDSVDLSRVHKGKSTRKEENTRSLLNDKRAVAAQRQRYEQYSVVVEEVPLQPGESLPYHSVYYEDEYDDTYDGNQVGANDADSDDELISRRPFTIPQVLRTKVPREGQEEDDDDEEDDADEEAPKPDHFVQDPAVLREKAEARRMAFLAKKGYRHDSSTAVAGSPRGHGQSRETTQERRKKEANKATRANHNRRTMADRKRSKGMIPS
